Microarray screen: hit calls

Targets (5′ to 3′):
SAM-II: SAM-II riboswitch RNA pseudoknot, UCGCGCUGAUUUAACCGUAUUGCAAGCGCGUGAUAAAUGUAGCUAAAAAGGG. Hit rate about 1% of about 21,000 compounds.
TPP: TPP riboswitch RNA three-way junction, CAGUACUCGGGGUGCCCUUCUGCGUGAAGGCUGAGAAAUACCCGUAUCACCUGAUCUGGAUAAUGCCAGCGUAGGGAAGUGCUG. Hit rate about 0.7% of about 24,000 compounds.
PreQ1: PreQ1 riboswitch RNA pseudoknot, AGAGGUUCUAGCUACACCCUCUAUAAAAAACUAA. From B. subtilis. Hit rate about 0.7% of about 24,000 compounds.

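The test is a small-molecule microarray: each compound is printed twice on a reactive slide, and binding shows as fluorescence of the labelled oligonucleotide after washing. The data file lists only calls. An earlier report of the laboratory on the PreQ1, TPP and SAM-II riboswitches (doi:10.1038/s41467-019-09493-3) used 1 µM RNA for 2 h and required a mean Z-score above 3 (spot signal-to-noise against the whole library), a score well above that on a control array, and duplicate spots agreeing (coefficient of variation under 100); it then also set aside compounds that hit other targets, which this list keeps. The cut-offs behind this list may differ. These are primary screening calls, not affinities; a compound without a hit may have attached poorly or may still bind in solution.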
Key: hit = hit, no hit = tested without a hit.
This is an unselected part of the compounds tested.
A target missing from an entry has no call listed here.

For CN(C)c1nc2c(c(N3CCC(n4c(=O)[nH]c5ccccc54)CC3)n1)CCNC2 the calls were SAM-II: no hit; TPP: no hit; PreQ1: no hit. With OC1(CNCCCc2ccncc2)CNCCOC1 (stereo not shown) the screen gave SAM-II: no hit; TPP: no hit; PreQ1: no hit. Calls for CC(C=CC1=C(C)CCCC1(C)C)=CC=CC(C)=CC(=O)Nc1ccc(O)cc1 are SAM-II: no hit; TPP: no hit; PreQ1: no hit. Calls for COc1ccc(C2Nc3ccccc3C(=O)N2Cc2ccco2)cc1CSc1nc2ccccc2s1 (stereo not shown) are SAM-II: no hit; TPP: no hit; PreQ1: no hit.

With OCCn1nc(C2CCCC2)nc1Cc1ccc2c(c1)OCO2 the screen gave SAM-II: no hit; TPP: no hit; PreQ1: no hit. Calls for Cc1nc(NCc2ccc(F)cc2)nc2c1C(=O)c1ccccc1-2 are SAM-II: no hit; TPP: no hit; PreQ1: no hit. With Cc1nn2c(N3CCN(CCO)CC3)cc(-c3ccccc3)nc2c1-c1ccc(Cl)cc1 the screen gave TPP: no hit; PreQ1: no hit. CC(=O)c1cccc(NC2c3ccccc3C(=O)N2Cc2ccco2)c1 (stereo not shown) was scored SAM-II: no hit; TPP: no hit; PreQ1: no hit.

For COc1ccc(C2=C(C)NNC2=C2C=CC(=O)C=C2O)cc1 the calls were SAM-II: no hit; TPP: no hit; PreQ1: no hit. COC(=O)CNc1nc(Cl)nc(N2CCC(C)CC2)n1 was scored SAM-II: no hit; TPP: no hit; PreQ1: no hit. Calls for CCn1c(C)cc(C(=O)N[C@H]2CC[C@H]2NC2CCOCC2)c1C are SAM-II: no hit; TPP: no hit; PreQ1: no hit. CCCCSc1cc(C)nc(N)n1 was scored SAM-II: no hit; TPP: no hit; PreQ1: no hit.

Cc1c(C)n(CC(O)CNCCc2ccccc2)c2ccccc12 (stereo not shown) was scored SAM-II: no hit; TPP: no hit; PreQ1: no hit. With Nc1ccccc1C(=O)NCCc1c[nH]c2ccccc12 the screen gave SAM-II: no hit; TPP: no hit; PreQ1: no hit. Calls for NCC1CCN(Cc2cccn2-c2ccc(Cl)cn2)C1 (stereo not shown) are SAM-II: no hit; TPP: no hit; PreQ1: no hit. Calls for CN(C)C[C@@H]1CCN(C(=O)Nc2cccc(OC3CCCC3)c2)C[C@H]1O are SAM-II: no hit; TPP: no hit; PreQ1: no hit.

c1ccc2cc(OCCOCCOc3ccc4ccccc4c3)ccc2c1 was scored SAM-II: no hit; TPP: no hit; PreQ1: no hit. For COc1ccc2c(c1)CCCC2n1ccnc1-c1cc2n(n1)CCNC2 (stereo not shown) the calls were SAM-II: no hit; TPP: no hit; PreQ1: no hit. Calls for Cc1nnc(N2C[C@H](CO)C[C@H](CN3CCCC3)C2)s1 are SAM-II: no hit; TPP: no hit; PreQ1: no hit. With COc1ccccc1-c1cc(N)n(S(=O)(=O)c2cccc3nsnc23)n1 the screen gave SAM-II: no hit; TPP: no hit; PreQ1: no hit.

With COc1cc2nccc(Oc3ccc(NC(=O)Nc4ccc(F)cc4F)c(F)c3)c2cc1OC the screen gave SAM-II: no hit; TPP: no hit; PreQ1: no hit. Calls for Cl.Nc1ccn([C@@H]2O[C@H](CO)[C@@H](O)C2(F)F)c(=O)n1 are SAM-II: no hit; TPP: no hit; PreQ1: no hit. Cc1noc(C)c1CCC(=O)NCc1cc2n(n1)CCNC2 was scored SAM-II: no hit; TPP: no hit; PreQ1: no hit. Calls for Cc1csc2c(N3CCC(O)(CO)CC3)ncnc12 are SAM-II: no hit; TPP: no hit; PreQ1: no hit.

With NCCC12CCCN1CCC2 the screen gave SAM-II: no hit; TPP: no hit; PreQ1: no hit. With CCOc1ccccc1-c1ccc2sc(N)nc2c1 the screen gave SAM-II: no hit; TPP: no hit; PreQ1: no hit. With O=C1CNC(c2ccccc2)c2cc(Br)ccc2N1 (stereo not shown) the screen gave SAM-II: no hit; TPP: no hit; PreQ1: no hit. Calls for COc1ccccc1OCCSc1nc2ccccc2n1CCO are SAM-II: no hit; TPP: no hit; PreQ1: no hit.

For Cc1nc(CN)cc(N2CCC(C(O)c3nccn3C)CC2)n1 (stereo not shown) the calls were SAM-II: no hit; TPP: no hit; PreQ1: no hit. For CNC(=O)C1CCN(C(=O)C2(Oc3ccc(C)cc3)CCNCC2)C1 (stereo not shown) the calls were SAM-II: no hit; TPP: no hit; PreQ1: no hit. Calls for COCCN1CC(CNCc2cc(O)c3c(C)ccc(C)c3n2)CC1=O (stereo not shown) are SAM-II: no hit; TPP: no hit; PreQ1: no hit. Calls for CC1=C(C(=O)OC(C)(C)C)C2(C(=O)N(C)c3ccccc32)C(C#N)=C(N)O1 (stereo not shown) are SAM-II: no hit; TPP: no hit; PreQ1: no hit.

Calls for CCOC(=O)c1ncn2c1CN(C)C(=O)c1cc(F)ccc1-2 are SAM-II: no hit; TPP: no hit; PreQ1: no hit. Calls for O=C1CCC2(CCN(Cc3ncccn3)CC2)CN1[C@H]1CC[C@H](O)CC1 are SAM-II: no hit; TPP: no hit; PreQ1: no hit. Nc1ncnc2ncnn12 was scored SAM-II: no hit; TPP: no hit; PreQ1: no hit. COc1cc2c(cc1N)OCO2 was scored SAM-II: no hit; TPP: no hit; PreQ1: no hit.

Some entries from above, unchanged:

SMILES	SAM-II	TPP	PreQ1
O=C1CNC(c2ccccc2)c2cc(Br)ccc2N1 (stereo not shown)	no hit	no hit	no hit
Cc1c(C)n(CC(O)CNCCc2ccccc2)c2ccccc12 (stereo not shown)	no hit	no hit	no hit
Cc1nc(CN)cc(N2CCC(C(O)c3nccn3C)CC2)n1 (stereo not shown)	no hit	no hit	no hit

Data from the ROBIN nucleic acid binder screens, doi:10.1002/anie.202211358.